Consider 5 sequences from patent publication US5593834.

The chains behind the UniProt entries cited, without tags or fusion partners. Residues count along the entry.
UniProt P00639, 23-282: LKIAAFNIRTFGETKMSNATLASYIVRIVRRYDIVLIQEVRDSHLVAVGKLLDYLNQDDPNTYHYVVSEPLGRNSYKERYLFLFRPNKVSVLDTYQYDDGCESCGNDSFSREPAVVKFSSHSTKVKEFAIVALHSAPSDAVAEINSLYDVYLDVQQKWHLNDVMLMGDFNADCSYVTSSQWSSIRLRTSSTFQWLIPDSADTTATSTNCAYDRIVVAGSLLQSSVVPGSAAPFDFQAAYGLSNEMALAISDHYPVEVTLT

A weaker result is weaker than the reference pair of the same experiment. For part of these data: For at least one entry, the source does not settle the construct or the ends of the probe.

The subject of data set [1] is AluI restriction endonuclease. The data set is described as follows: enzyme reaction in vitro. To be noted: purified native protein, protein details: commercial, BRL, label: labelled (Cherenkov counted).
Data set [2] addresses DNase I (UniProt P00639). The data set is described as follows: enzyme reaction in vitro. To be noted: values in Table 6 not shown, purified native protein, label: labelled (Cherenkov counted).

For “AAAAAAAAAGCTTTTTTTTT (double strand) [(AA)4 20-mer]”, the “activity on this sequence” value in data set [1] (most resistant, more than 75% uncleaved after 70 min) was “less active”.
“AAAAAAAGCTTTTTTT (double strand) [(AA)3 16-mer]”: the “activity on this sequence” value in data set [2] (less reactive than (AT)3) was “less active”; in data set [1] (reference for (AT)3, which is cleaved 2.95 times faster), “less active”.
Turning to “AAAAAGCTTTTT (double strand) [(AA)2 12-mer]”, in data set [1] (reference for (AT)2, which is cleaved 3.02 times faster), the “activity on this sequence” value was “less active”.
As for “AAATATAGCTATATTT (double strand) [AA(AT)2 16-mer]”, the “activity on this sequence” value in data set [1] (rate between (AT)3 and (AA)3) is “active”.
“ATATATAGCTATATAT (double strand) [(AT)3 16-mer]”: the “activity on this sequence” value in data set [2] (more reactive than (AA)3) is “active”.
